Laboratory results from PubChem BioAssay AID540256 (National Center for Advancing Translational Sciences (NCATS), 2011).
The whole screen tested about 300,000 compounds, of which about 3,700 (1.2%) were called active. The shares of active, inactive and inconclusive entries below differ from those in the screen. Calls come from the whole dose curve; tested in HEK293 cells. Where the call is inconclusive, the potency comes from a doubtful curve fit.
% is set by controls: 0 for no effect and ±100 for the full control effect; potency is the fitted concentration of half-maximal effect.

Assay: qHTS for Inhibitors of binding or entry into cells for Lassa Virus; note: nearly all actives have a fitted effect of over 50% in size
Details: Lassa virus pseudotype entry inhibition, cell reporter; activity change, negative = inhibition: at 37.9 µM (top of the series) unless noted
With `O=C(c1ccc2c(=O)n(CC3CCCO3)c(=S)[nH]c2c1)N1CCN(c2ccccc2)CC1` (stereo unspecified) the Potency was inconclusive: 25.9 µM [activator, partial curve, poor fit].
For `CN(C)c1ccc(C=c2c3ccccc3n3c2c2c([n+]3C)CCCC2)cc1`, the Potency was active: 7.94 µM.
With `O=C(N/N=C/c1ccc(-c2cccc(C(F)(F)F)c2)o1)c1cccc(F)c1` the Potency was inconclusive: 32.6 µM [inhibitor, single point].
In the case of `Nc1nonc1-n1nnc(C(=O)N/N=C/c2ccc(Cl)cc2Cl)c1CN1CCCC1`, the “activity change, negative = inhibition” value is reported as inactive: 2.21%.
With `CC(C)(C)C(=O)/C(C#N)=C/c1cccs1` the Potency was inconclusive: 3.55 µM [inhibitor, single point].
With `CCOC(=O)CCNC(=O)N1CCN(S(=O)(=O)c2ccc3c(ccn3C)c2)CC1` the “activity change, negative = inhibition” value was inactive: 7.57% [at 46.1 µM].
In the case of `O=C(Nc1nc2c(F)cccc2s1)c1ccc2c(c1)OCCO2`, the Potency is reported as inconclusive: 31.6 µM [inhibitor, single point].
For `COc1cccc(CNC(=O)c2cc(COc3c(F)cccc3F)on2)c1`, the “activity change, negative = inhibition” value was inactive: -6.64% [at 46.1 µM].
For `Cc1ccc(Sc2ccc(N3CCC(C(=O)Nc4ccc(Cl)cc4)CC3)nn2)cc1`, the Potency was inconclusive: 35.5 µM [inhibitor, single point].
In the case of `COc1ccc(/C=C/C(=O)N2CCN(c3ccccn3)CC2)c2ccccc12`, the Potency is reported as inconclusive: 1.12 µM [inhibitor, single point].
With `CC(C)C(=O)OCC(=O)Nc1ccc(N=Nc2ccccc2)cc1` the Potency was inconclusive: 10 µM [inhibitor, partial curve, poor fit].
For `Cc1ccc(N/C=C/C(=O)c2cccs2)cc1C`, the Potency was active: 10 µM.
For `Cc1ccc(C(=O)Nc2ccccc2C(N)=O)o1`, the Potency was inconclusive: 29.1 µM [activator, single point].
In the case of `O=S1(=O)CC2N=C(N(Cc3c(F)cccc3Cl)c3ccccc3F)SC2C1` (stereo unspecified), the Potency is reported as inconclusive: 14.1 µM [inhibitor, single point].
In the case of `CC(C)Oc1cccc(-c2nnc(SCC(=O)Nc3ccc4c(c3)OCCO4)n2N)c1`, the “activity change, negative = inhibition” value is reported as inactive: -5.78%.
With `CN1CCN(C(=S)c2cn(CCOc3ccccc3F)c3ccccc23)CC1` the “activity change, negative = inhibition” value was inactive: -20.2%.
For `CC(C)OCP(=O)(c1ccccc1)c1ccccc1`, the Potency was inconclusive: 20.6 µM [activator, single point].
In the case of `C=CCn1c(-c2cccc(S(=O)(=O)N(CC)CC)c2)n[nH]c1=S`, the Potency is reported as inconclusive: 2.82 µM [inhibitor, full curve, poor fit].
With `CC(NC(=O)c1ccc(C#N)cc1)C1CC2CCC1C2` (stereo unspecified) the Potency was inconclusive: 10 µM [inhibitor, partial curve, poor fit].
With `Cc1ccc(OCC(=O)NC2CCCc3ccccc32)c(C)c1` (stereo unspecified) the Potency was inconclusive: 20 µM [inhibitor, single point].
For `CCOC(=O)c1ccccc1NC(=O)c1ccccc1SC`, the “activity change, negative = inhibition” value was inactive: 0.29%.
With `Cc1ccc(COC(=O)c2cccc(S(=O)(=O)N3CCCCC3)c2)cc1` the Potency was inconclusive: 14.1 µM [inhibitor, partial curve, poor fit].
With `O=C(c1ccc(Cl)cc1Cl)N1CCC(C(=O)N2CCOCC2)CC1` the “activity change, negative = inhibition” value was inactive: 0.303% [at 46.1 µM].
In the case of `COc1ccc(NC(=O)c2csc3c2CCCCC3)c(OC)c1`, the Potency is reported as inconclusive: 22.4 µM [inhibitor, single point].
With `Cc1cc(C)c(S(=O)(=O)NCCc2cc3ccc(C)c(C)c3[nH]c2=O)c(C)c1` the Potency was inconclusive: 3.55 µM [activator, partial curve, poor fit].
With `Cc1nc(N2CCN(Cc3ccccc3)CC2)nc2c1C(=O)CC(C)C2` (stereo unspecified) the Potency was inconclusive: 0.058 µM [inhibitor, full curve, poor fit].
In the case of `Cc1ccc(N2CCN(C(=O)C3CCN(S(=O)(=O)c4ccc5c(c4)oc(=O)n5C)CC3)CC2C)cc1` (stereo unspecified), the “activity change, negative = inhibition” value is reported as inactive: 6.98% [at 46.1 µM].
With `CC12CCC(c3c1nc1ccccc1[n+]3[O-])C2(C)C` (stereo unspecified) the Potency was inconclusive: 1.3 µM [inhibitor, partial curve, poor fit].
With `O=c1c2ccccc2c(-c2ccc(O)cc2)nn1-c1cccc(C(F)(F)F)c1` the Potency was inconclusive: 11.2 µM [inhibitor, partial curve].
With `Cc1cc(C)c2c(N)c(C(=O)c3ccccc3)oc2n1` the “activity change, negative = inhibition” value was inactive: 28.2% [at 14.3 µM].
For `CN(CC(=O)Nc1cccc(Cl)c1)C1=NS(=O)(=O)c2ccccc21`, the “activity change, negative = inhibition” value was inactive: -3.84%.
With `O=S(=O)(Nc1ccc(O)c(Sc2nc3ccccc3s2)c1)c1ccc(Cl)cc1` the Potency was inconclusive: 25.1 µM [inhibitor, single point].
In the case of `O=C(CN1CCCCC1)Nc1ccc(NC(=O)c2ccccc2Cl)cc1Cl`, the Potency is reported as inconclusive: 0.447 µM [inhibitor, full curve, poor fit].
In the case of `CN(C)c1cccc(C(=O)NC2CCCCCC2)c1`, the Potency is reported as inconclusive: 6.51 µM [activator, single point].
In the case of `O=C(NCc1cccs1)c1csc2ccccc12`, the Potency is reported as inconclusive: 9.2 µM [activator, partial curve, poor fit].
For `CCCc1nn(C)c(C(=O)Nc2cccc(C)c2)c1Cl`, the Potency was inconclusive: 3.16 µM [activator, partial curve].
For `CC(C)CN(C(=O)CN1CCCCCC1)c1c(N)n(CC(C)C)c(=O)[nH]c1=O`, the Potency was inconclusive: 0.282 µM [inhibitor, full curve, poor fit].
For `Cc1cc2oc(C(=O)Nc3ccc(S(=O)(=O)N(C)Cc4ccccc4)cc3)cc(=O)c2cc1C`, the “activity change, negative = inhibition” value was inactive: -0.642% [at 46.1 µM].
In the case of `COc1ccc(NC(=O)COc2ccc3c(c2)OCO3)cc1`, the “activity change, negative = inhibition” value is reported as inactive: -10.1% [at 46.1 µM].
For `CC(C)CC(=O)Nc1nnc(S(=O)(=O)N(CC(C)C)c2ccccc2)s1`, the activity change, negative = inhibition was inconclusive: 30.5% [activator] [at 46.1 µM].
In the case of `Cn1c(O)c(N=Nc2ccccc2)c2ccccc21`, the Potency is reported as inconclusive: 11.2 µM [activator, single point].
With `Cc1c(C(=O)Cc2ccccc2)n(C)c2ccccc12` the Potency was inconclusive: 8.91 µM [inhibitor, partial curve, poor fit].
With `COc1ccc(S(=O)(=O)N2CCOCC2)cc1Br` the “activity change, negative = inhibition” value was inactive: 2.33% [at 46.1 µM].
With `NNC(=O)COc1ccc(C2SCCS2)cc1` the Potency was inconclusive: 10 µM [inhibitor, partial curve, poor fit].
With `COc1ccccc1Oc1coc2c(CN3CCOCC3)c(O)ccc2c1=O` the Potency was inconclusive: 3.55 µM [inhibitor, partial curve, poor fit].
For `CC(=O)Nc1ccc(S(=O)(=O)N[C@@H](C)C(=O)Nc2ccc(N3CCOCC3)cc2)cc1`, the Potency was inconclusive: 8.91 µM [inhibitor, partial curve, poor fit].
In the case of `Cc1nc2c(cnn2-c2ccccc2Cl)c(=O)n1-c1ccc(N2CCC(C)CC2)cc1`, the Potency is reported as inconclusive: 29.1 µM [inhibitor, single point].
With `O=C(/C=C/c1ccc(-c2ccccc2)o1)c1ccccc1` the Potency was inconclusive: 31.6 µM [inhibitor, single point].
For `COc1ccc(-c2nnc(NC(=O)C3CC3)o2)cc1`, the Potency was inconclusive: 35.5 µM [inhibitor, partial curve, poor fit].
For `COc1cc([N+](=O)[O-])ccc1NC(=O)CCCOc1ccc(C)cc1`, the Potency was inconclusive: 15.8 µM [inhibitor, single point].
In the case of `O=C(CSC1=Nc2ccccc2C2=NC(CCC(=O)NC3CCCCC3)C(=O)N12)Nc1cccc(C(F)(F)F)c1` (stereo unspecified), the Potency is reported as inconclusive: 22.4 µM [activator, single point].
With `Cc1c(Cl)c([N+](=O)[O-])nn1Cc1ccc(C(=O)N/N=C\c2cc(Cl)ccc2O)o1` the Potency was inconclusive: 6.31 µM [inhibitor, partial curve].
For `COc1ccc(C2CC(=O)Nc3cc(C)c(C)cc32)c(OC)c1OC` (stereo unspecified), the Potency was inconclusive: 35.5 µM [inhibitor, partial curve, poor fit].
With `Nc1nnc(SCC(=O)Nc2ccc(Cl)cc2)s1` the Potency was inconclusive: 35.5 µM [inhibitor, partial curve, poor fit].
With `Cc1ccc2c(c1)nnn2C1CCN(S(=O)(=O)c2ccc(C(=O)N3CC(C)CC(C)C3)cc2)CC1` (stereo unspecified) the Potency was inconclusive: 32.6 µM [inhibitor, partial curve, poor fit].
For `Cc1cc(C(=O)COc2ccc(-c3nnco3)cc2)c(C)n1Cc1ccccc1`, the Potency was inconclusive: 16.4 µM [inhibitor, partial curve, poor fit].
In the case of `Cc1ccc(NC2CCCN(C(=O)c3cc(C(C)C)[nH]n3)C2)cc1C` (stereo unspecified), the Potency is reported as inconclusive: 2 µM [activator, partial curve, poor fit].
In the case of `Cc1ccc(CN2CCN(CC(C)C)C(CCO)C2)s1` (stereo unspecified), the Potency is reported as inconclusive: 6.31 µM [activator, full curve, poor fit].
For `Cc1c(N(C)S(=O)(=O)c2cccc(C(=O)NC(C)C)c2)c(=O)n(-c2ccccc2)n1C`, the Potency was inconclusive: 6.31 µM [inhibitor, single point].
With `O=C(Cc1ccccc1)OCC(=O)c1ccc(F)cc1` the Potency was inconclusive: 1.26 µM [inhibitor, single point].
In the case of `COc1ccc(C2CC(c3ccc(Br)cc3)=NN2C(=O)CSC2=NCCS2)cc1` (stereo unspecified), the Potency is reported as inconclusive: 35.5 µM [inhibitor, single point].
In the case of `Cc1cc(Cl)ccc1OCC(=O)N1CCN(c2ncccn2)CC1`, the Potency is reported as inconclusive: 35.5 µM [inhibitor, single point].
With `CCN(CC)C(=O)CSc1nc2c(sc(=S)n2CC)c(=O)n1-c1ccccc1` the “activity change, negative = inhibition” value was inactive: -12%.
In the case of `Cc1ccc(NC(=O)COC(=O)c2cc(Cl)cc(Cl)c2)c(Br)c1`, the “activity change, negative = inhibition” value is reported as inactive: -2.91%.
For `C[C@@]1(C2CCCC2)Cc2cc(OCC(=O)O)c(Cl)c(Cl)c2C1=O`, the Potency was inconclusive: 2.06 µM [inhibitor, full curve, poor fit].
For `CCOCC(=O)Nc1ccc(S(=O)(=O)NCCc2ccccc2)cc1`, the Potency was inconclusive: 6.31 µM [inhibitor, partial curve].
